PubChem BioAssay AID1259424 | University of Nebraska Medical Center | 2018
The deposit covers about 14,000 reagents; shown is a part drawn at random. 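Higher correlation or smaller distance means closer resemblance to KSR1 loss; control wells, including KSR1 knockdowns, recur on many plates.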 Not all columns of the deposit are shown. No sequences are given here. Not stated in the record: the time to read-out.

Screen: 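Rank knockdowns across the genome by resemblance to the KSR1 depletion profile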 (primary screen)
Cell system: human HCT116 colon cancer cells
Reagent: siRNA pool against human genes, 50 nM
Detection: 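Six signature mRNAs by branched-DNA multiplex assay, scaled to two housekeeping genes and non-targeting median, log2; matched to mean KSR1 knockdown profile by Pearson correlation and euclidean distance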
Scale: mean correlation with KSR1 profile and KSR1 correlation: higher = expression change more like KSR1 knockdown; mean distance from KSR1 profile: higher = expression change less like KSR1 knockdown

gene symbol,PubChem SID,mean correlation with KSR1 profile,mean distance from KSR1 profile,"KSR1 correlation, replicate 1","KSR1 correlation, replicate 2"
SNCA,SID363991677,-0.388,2.64,-0.551,-0.409
ETV1,SID363995898,-0.437,1.28,-0.359,-0.502
ATF1,SID363996098,0.131,2.49,0.209,0.235
DDX11,SID363995383,0.202,1.03,0.414,0.274
SH2B3,SID363996377,-0.543,2.74,-0.426,-0.683
MRPS28,SID363998553,-0.464,2.15,-0.754,-0.618
FRA10AC1,SID364004656,-0.351,2.89,-0.371,-0.42
C1orf21,SID364003456,0.115,2.46,-0.152,0.0769
RAB29,SID363994985,-0.174,2.11,0.103,-0.343
OAS3,SID363997013,-0.284,2.46,-0.415,-0.211
CXCL8,SID363991902,0.865,1.42,0.898,0.789

Next part (3 carried over from the part before).
gene symbol,PubChem SID,mean correlation with KSR1 profile,mean distance from KSR1 profile,"KSR1 correlation, replicate 1","KSR1 correlation, replicate 2"
RAB29,SID363994985,-0.174,2.11,0.103,-0.343
OAS3,SID363997013,-0.284,2.46,-0.415,-0.211
CXCL8,SID363991902,0.865,1.42,0.898,0.789
ZBTB44,SID363998615,-0.44,2.48,-0.498,-0.661
CYP4F3,SID363992181,-0.274,2.85,-0.0671,-0.689
SLC4A10,SID364002294,0.306,2.34,0.253,-0.0662
ITIH4,SID363993419,-0.146,1.79,-0.529,0.181
KDM5B,SID363997407,-0.106,1.82,0.0285,0.485
HOXD1,SID364002826,0.85,0.919,0.91,0.836
AMOTL2,SID363999944,-0.116,3.14,-0.158,0.0277
CRISP3,SID363996908,-0.147,0.954,-0.359,-0.123
HOXD10,SID363993352,0.532,1.41,0.422,0.606
JUND,SID363996265,0.429,2.52,0.681,0.699
HACD2,SID364004983,-0.546,3.29,-0.491,-0.655
PPBP,SID363993863,0.0837,2.53,0.184,0.0232
CAPN2,SID363992969,-0.274,3.66,-0.189,-0.311
IPO13,SID363999012,-0.643,1.69,-0.268,-0.565
CBLN1,SID363995339,0.0332,1.85,0.43,-0.00597
LINC00339,SID363998636,-0.137,2.85,0.55,0.627
OPRM1,SID363992199,0.942,2.3,0.993,0.969
CEACAM8,SID363993032,-0.0609,2.64,-0.00298,-0.273
PRR13,SID364001089,-0.253,3.64,-0.144,-0.154
ZFP64,SID364000867,-0.547,4.54,-0.531,-0.467
LPAR2,SID363995679,0.775,1.43,0.757,0.809
LRP11,SID364004210,-0.372,3.67,-0.483,-0.441
MRPS27,SID363999293,-0.18,3.09,-0.0678,-0.288
